From patent publication US20140171373A1
No constants are given. Whether binding was seen depends on the method and setting. Binding can be weak; no strength is given.

The chains behind the UniProt entries cited, without tags or fusion partners. Where a name states a change or a piece, a line headed by the entry shows the natural chain unless it says otherwise.
UniProt P42575: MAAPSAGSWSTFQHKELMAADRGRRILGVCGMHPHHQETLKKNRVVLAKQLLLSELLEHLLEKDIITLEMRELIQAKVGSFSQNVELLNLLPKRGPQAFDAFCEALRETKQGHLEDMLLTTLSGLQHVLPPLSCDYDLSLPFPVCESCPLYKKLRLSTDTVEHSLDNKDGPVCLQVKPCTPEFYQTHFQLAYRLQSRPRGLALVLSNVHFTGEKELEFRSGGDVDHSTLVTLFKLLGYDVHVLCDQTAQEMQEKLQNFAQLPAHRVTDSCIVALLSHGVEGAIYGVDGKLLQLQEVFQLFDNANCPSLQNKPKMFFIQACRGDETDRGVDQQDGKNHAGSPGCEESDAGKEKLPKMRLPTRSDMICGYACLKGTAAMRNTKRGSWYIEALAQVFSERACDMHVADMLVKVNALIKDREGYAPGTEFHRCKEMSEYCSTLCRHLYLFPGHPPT

B1: pentapeptide of Table 1, SEQ ID NO:32 (R1 CH3; Y-D-V-V-D; R2 CHO) (peptide)
peptide: YDVVD
modifications: N-terminal R1 = CH3 (acetyl); C-terminal Asp aldehyde (CHO)
B2: pentapeptide of Table 1, SEQ ID NO:33 (R1 CH3; Y-K-P-Y-D; R2 CHO) (peptide)
peptide: YKPYD
modifications: N-terminal R1 = CH3 (acetyl); C-terminal Asp aldehyde (CHO)
B3: pentapeptide of Table 1, SEQ ID NO:23 (R1 CH3; F-K-P-V-D; R2 CHO) (peptide)
peptide: FKPVD
modifications: N-terminal R1 = CH3 (acetyl); C-terminal Asp aldehyde (CHO)
B4: pentapeptide of Table 1, SEQ ID NO:21 (R1 CH3; Y-S-P-V-D; R2 CHO) (peptide)
peptide: YSPVD
modifications: N-terminal R1 = CH3 (acetyl); C-terminal Asp aldehyde (CHO)
B5: pentapeptide of Table 1, SEQ ID NO:22 (R1 CH3; Y-C-P-V-D; R2 CHO) (peptide)
peptide: YCPVD
modifications: N-terminal R1 = CH3 (acetyl); C-terminal Asp aldehyde (CHO)
B6: pentapeptide of Table 1, SEQ ID NO:30 (R1 CH3; Y-D-P-A-D; R2 CHO) (peptide)
peptide: YDPAD
modifications: N-terminal R1 = CH3 (acetyl); C-terminal Asp aldehyde (CHO)
B7: pentapeptide of Table 1, SEQ ID NO:29 (R1 CH3; Y-K-P-A-D; R2 CHO) (peptide)
peptide: YKPAD
modifications: N-terminal R1 = CH3 (acetyl); C-terminal Asp aldehyde (CHO)
B8: pentapeptide of Table 1, SEQ ID NO:20 (R1 CH3; Y-D-P-V-D; R2 CHO) (peptide)
peptide: YDPVD
modifications: N-terminal R1 = CH3 (acetyl); C-terminal Asp aldehyde (CHO)
B9: pentapeptide of Table 1, SEQ ID NO:31 (R1 CH3; Y-K-V-V-D; R2 CHO) (peptide)
peptide: YKVVD
modifications: N-terminal R1 = CH3 (acetyl); C-terminal Asp aldehyde (CHO)
B10: pentapeptide of Table 1, SEQ ID NO:25 (R1 benzyl; Y-K-P-V-D; R2 CHO) (peptide)
peptide: YKPVD
modifications: N-terminal R1 = benzyl; C-terminal Asp aldehyde (CHO)
B11: pentapeptide of Table 1, SEQ ID NO:19 (R1 CH3; Y-K(Ac)-P-V-D; R2 CHO) (peptide)
peptide: YKPVD
modifications: N-terminal R1 = CH3 (acetyl); K(Ac) at aa4; C-terminal Asp aldehyde (CHO)
B12: pentapeptide of Table 1, SEQ ID NO:26 (R1 benzyl; Y-D-P-V-D; R2 CHO) (peptide)
peptide: YDPVD
modifications: N-terminal R1 = benzyl; C-terminal Asp aldehyde (CHO)
B13: pentapeptide of Table 1, SEQ ID NO:27 (R1 CH3; Y-K-P-F-D; R2 CHO) (peptide)
peptide: YKPFD
modifications: N-terminal R1 = CH3 (acetyl); C-terminal Asp aldehyde (CHO)
B14: pentapeptide of Table 1, SEQ ID NO:28 (R1 CH3; Y-D-P-F-D; R2 CHO) (peptide)
peptide: YDPFD
modifications: N-terminal R1 = CH3 (acetyl); C-terminal Asp aldehyde (CHO)

The binders below were run against caspase-2 (UniProt P42575) (assay: competitive binding assay (PROMEGA-GLO 2)).

binding | Binder
binds | B1
binds | B2
binds | B3
binds | B4
binds | B5
binds | B6
binds | B7
binds | B8
binds | B9
binds | B10
binds | B11
binds | B12
binds | B13
binds | B14
